# Source: the supplement of paper PMC10849652
# Amino acid sequences for entries named in this document (tags omitted). A change or cut given only in a name is not applied to a line headed by its entry.
# UniProt O43432, whole entry, looked up: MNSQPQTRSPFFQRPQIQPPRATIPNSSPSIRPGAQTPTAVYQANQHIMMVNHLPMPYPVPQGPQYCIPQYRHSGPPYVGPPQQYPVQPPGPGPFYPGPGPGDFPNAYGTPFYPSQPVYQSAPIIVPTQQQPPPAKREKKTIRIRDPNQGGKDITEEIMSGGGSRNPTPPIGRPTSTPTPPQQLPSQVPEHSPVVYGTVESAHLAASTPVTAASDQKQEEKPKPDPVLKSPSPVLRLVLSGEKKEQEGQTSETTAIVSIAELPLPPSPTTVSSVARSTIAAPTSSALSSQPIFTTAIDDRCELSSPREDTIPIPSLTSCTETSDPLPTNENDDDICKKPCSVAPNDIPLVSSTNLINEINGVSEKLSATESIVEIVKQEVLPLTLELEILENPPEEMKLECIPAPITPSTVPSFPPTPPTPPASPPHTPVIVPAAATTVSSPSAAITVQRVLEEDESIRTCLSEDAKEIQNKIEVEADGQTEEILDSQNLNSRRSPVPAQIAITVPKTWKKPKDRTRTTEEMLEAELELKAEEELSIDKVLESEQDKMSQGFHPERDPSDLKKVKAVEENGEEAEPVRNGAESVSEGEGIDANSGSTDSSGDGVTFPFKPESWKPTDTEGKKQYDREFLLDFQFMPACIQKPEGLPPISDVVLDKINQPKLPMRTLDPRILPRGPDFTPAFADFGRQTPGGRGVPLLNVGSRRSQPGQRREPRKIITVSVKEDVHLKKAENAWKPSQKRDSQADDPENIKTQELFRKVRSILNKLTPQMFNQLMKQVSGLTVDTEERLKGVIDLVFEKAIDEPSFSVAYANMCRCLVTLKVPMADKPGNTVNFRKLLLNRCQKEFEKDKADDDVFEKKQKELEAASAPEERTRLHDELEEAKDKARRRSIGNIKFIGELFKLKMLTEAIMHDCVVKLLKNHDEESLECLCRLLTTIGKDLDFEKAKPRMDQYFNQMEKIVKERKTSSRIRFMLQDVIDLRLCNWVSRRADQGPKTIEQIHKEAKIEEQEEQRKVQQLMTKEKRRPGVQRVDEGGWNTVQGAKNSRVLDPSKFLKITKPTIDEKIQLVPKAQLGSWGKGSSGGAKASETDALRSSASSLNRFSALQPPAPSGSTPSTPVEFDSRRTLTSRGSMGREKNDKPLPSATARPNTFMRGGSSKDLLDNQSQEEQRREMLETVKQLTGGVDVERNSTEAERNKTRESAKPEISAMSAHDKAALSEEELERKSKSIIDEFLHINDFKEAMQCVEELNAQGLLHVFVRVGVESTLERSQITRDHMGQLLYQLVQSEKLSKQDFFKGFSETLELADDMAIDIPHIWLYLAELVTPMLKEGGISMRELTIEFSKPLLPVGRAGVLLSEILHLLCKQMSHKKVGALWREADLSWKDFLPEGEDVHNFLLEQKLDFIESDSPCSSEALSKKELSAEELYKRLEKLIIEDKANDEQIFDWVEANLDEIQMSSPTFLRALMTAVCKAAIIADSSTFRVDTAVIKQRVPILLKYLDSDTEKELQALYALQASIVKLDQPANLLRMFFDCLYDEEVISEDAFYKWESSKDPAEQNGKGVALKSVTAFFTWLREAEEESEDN
# UniProt Q9BUP0: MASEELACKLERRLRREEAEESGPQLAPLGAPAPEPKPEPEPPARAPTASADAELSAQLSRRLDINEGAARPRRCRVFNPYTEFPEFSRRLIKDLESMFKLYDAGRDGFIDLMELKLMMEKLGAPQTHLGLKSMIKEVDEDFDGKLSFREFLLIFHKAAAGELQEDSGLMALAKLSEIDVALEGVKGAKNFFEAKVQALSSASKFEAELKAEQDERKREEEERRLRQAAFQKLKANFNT
# UniProt P0DPD8: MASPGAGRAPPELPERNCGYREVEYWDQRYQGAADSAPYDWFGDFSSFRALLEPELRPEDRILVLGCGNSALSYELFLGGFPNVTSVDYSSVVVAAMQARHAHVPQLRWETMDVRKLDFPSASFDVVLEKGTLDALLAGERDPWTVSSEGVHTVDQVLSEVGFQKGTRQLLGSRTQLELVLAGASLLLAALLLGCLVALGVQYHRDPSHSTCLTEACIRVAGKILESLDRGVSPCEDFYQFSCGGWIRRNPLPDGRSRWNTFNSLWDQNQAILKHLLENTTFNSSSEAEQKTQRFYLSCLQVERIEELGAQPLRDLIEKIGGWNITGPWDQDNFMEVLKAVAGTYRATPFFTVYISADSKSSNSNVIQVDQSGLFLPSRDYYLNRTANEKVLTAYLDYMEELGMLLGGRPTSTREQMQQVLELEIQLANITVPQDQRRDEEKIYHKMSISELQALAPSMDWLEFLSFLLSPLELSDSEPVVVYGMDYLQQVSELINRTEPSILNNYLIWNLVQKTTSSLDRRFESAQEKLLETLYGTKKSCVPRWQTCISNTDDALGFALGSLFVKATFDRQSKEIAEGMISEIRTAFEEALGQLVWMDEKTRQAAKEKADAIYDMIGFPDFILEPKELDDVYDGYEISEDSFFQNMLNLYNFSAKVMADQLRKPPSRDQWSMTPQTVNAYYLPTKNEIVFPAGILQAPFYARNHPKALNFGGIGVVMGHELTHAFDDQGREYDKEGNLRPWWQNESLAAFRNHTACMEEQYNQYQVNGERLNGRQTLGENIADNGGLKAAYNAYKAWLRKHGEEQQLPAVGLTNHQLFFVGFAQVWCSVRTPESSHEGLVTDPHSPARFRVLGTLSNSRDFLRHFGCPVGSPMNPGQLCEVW
# UniProt P06730, whole entry, looked up: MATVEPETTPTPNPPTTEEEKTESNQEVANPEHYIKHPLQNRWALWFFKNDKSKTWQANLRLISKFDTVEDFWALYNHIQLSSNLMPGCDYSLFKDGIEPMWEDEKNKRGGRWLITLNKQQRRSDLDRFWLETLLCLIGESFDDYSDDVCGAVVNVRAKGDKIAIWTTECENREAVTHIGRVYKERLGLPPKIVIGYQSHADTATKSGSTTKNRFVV
# UniProt Q7Z2Z2: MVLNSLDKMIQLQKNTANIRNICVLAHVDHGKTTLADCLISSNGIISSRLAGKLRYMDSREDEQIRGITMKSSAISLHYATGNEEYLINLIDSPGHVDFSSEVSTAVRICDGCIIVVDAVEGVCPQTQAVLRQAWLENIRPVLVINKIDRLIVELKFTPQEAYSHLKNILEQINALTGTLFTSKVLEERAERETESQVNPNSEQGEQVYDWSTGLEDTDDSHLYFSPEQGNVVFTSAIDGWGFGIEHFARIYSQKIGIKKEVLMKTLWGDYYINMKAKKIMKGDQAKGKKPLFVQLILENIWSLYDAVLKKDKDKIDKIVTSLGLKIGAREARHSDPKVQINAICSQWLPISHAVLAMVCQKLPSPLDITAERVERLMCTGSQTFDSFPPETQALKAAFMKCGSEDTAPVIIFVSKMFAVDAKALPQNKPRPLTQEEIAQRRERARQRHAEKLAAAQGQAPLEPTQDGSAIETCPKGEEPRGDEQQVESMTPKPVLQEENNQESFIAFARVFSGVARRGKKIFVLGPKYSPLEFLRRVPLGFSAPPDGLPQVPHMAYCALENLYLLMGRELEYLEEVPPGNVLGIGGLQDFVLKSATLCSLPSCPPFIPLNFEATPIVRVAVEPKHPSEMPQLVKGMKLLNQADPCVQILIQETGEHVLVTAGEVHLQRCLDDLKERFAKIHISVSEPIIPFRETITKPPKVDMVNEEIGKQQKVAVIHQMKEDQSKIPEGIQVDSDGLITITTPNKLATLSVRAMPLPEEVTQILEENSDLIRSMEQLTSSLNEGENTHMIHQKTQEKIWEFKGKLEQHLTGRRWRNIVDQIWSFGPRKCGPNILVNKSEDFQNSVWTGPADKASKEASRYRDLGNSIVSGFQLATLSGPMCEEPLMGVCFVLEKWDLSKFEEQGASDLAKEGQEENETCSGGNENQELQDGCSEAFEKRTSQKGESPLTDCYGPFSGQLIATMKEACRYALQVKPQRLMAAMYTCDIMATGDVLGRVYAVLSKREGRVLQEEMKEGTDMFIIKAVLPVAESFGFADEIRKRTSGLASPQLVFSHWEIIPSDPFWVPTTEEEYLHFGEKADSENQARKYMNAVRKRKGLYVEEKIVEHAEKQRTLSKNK
# UniProt Q9NYP7: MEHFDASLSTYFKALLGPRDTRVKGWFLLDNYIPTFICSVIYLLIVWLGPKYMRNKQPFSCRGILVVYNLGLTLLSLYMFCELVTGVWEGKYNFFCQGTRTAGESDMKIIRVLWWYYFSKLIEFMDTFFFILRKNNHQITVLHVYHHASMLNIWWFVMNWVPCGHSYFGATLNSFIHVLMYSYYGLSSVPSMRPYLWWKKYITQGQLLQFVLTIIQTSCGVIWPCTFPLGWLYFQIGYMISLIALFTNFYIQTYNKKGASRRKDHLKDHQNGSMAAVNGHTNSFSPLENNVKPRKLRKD
# UniProt O60739, whole entry, looked up: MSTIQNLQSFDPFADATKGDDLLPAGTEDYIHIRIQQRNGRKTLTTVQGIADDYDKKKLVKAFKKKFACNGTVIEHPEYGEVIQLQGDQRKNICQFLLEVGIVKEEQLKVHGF
# UniProt P18146, whole entry, looked up: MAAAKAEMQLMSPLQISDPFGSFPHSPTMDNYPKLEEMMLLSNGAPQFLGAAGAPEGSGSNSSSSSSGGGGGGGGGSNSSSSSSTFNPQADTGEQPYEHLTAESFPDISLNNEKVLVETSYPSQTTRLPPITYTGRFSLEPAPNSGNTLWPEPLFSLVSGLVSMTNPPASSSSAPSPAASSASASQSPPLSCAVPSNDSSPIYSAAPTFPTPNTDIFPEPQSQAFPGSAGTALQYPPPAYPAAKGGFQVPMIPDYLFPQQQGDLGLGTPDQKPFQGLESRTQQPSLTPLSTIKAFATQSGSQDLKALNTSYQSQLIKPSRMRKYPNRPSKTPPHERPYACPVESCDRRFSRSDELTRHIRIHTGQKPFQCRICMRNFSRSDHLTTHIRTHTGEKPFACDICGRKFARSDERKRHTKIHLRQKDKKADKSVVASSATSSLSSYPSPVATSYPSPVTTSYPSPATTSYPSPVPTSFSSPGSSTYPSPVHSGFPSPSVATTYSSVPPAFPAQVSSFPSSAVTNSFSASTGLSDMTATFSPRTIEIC
# UniProt P68104, whole entry, looked up: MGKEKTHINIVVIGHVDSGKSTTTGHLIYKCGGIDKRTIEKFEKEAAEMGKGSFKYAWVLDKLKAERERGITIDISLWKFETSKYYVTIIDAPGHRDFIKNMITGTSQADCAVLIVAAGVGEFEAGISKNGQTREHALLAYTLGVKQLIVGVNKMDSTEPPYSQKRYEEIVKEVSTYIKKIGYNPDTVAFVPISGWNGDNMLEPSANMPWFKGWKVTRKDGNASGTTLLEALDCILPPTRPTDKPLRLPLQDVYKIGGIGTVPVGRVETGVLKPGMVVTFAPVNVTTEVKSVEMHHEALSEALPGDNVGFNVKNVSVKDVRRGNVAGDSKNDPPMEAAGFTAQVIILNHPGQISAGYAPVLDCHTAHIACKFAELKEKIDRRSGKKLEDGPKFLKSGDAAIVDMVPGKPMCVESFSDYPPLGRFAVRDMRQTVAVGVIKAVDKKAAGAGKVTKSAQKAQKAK
# UniProt Q9Y6B2: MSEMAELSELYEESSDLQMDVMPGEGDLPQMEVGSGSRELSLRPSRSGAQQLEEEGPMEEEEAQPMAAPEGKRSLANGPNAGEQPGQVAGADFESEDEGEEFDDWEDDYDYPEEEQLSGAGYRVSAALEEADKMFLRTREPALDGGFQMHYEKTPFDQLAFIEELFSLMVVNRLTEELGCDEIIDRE
# UniProt Q9GZT9: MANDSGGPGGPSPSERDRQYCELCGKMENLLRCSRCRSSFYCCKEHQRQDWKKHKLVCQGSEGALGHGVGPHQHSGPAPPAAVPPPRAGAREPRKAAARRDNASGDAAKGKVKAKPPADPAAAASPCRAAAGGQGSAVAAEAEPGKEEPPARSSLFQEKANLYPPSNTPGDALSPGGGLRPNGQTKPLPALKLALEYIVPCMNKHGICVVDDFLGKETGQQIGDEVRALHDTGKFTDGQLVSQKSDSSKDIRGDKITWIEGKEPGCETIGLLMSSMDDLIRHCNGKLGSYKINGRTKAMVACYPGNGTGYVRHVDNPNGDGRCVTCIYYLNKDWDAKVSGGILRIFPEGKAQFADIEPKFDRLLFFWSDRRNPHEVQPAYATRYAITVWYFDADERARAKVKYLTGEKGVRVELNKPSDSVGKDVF
# UniProt O60573: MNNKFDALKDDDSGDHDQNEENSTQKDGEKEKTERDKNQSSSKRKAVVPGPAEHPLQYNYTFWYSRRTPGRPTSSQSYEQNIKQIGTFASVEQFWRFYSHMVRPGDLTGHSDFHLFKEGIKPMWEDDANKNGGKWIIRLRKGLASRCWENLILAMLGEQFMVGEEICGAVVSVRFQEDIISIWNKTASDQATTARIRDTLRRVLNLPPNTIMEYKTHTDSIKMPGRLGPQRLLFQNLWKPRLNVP
# UniProt Q5JPI9: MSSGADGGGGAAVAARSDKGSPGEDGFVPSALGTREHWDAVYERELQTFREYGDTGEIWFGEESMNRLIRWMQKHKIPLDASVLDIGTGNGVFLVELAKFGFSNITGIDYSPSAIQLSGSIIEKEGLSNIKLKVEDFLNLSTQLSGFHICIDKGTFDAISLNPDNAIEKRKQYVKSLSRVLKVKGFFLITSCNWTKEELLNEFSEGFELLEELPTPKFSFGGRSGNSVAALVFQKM
# This is one part of the list.
# Tests used:
# Assay in all cases: log2 fold change, soluble protein after heating vs DMSO (PISA); higher = thermal stabilisation; K562 cells, 10 uM, 30 min; active = over 0.2 and 3.5 SD of the protein, either way, in both replicates (recomputed)
# [1] = compound: CC1=C(C=C(C=C1)NC(=O)C2=CC(=CC=C2)C(C)(C)C#N)NC3=CC4=C(C=C3)N=CN(C4=O)C
# How it was run: (§1)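 Aliquots of K562 cells (2×10^6 cells/mL) treated with 10 μM compound for 30 min were heated for 3 min over 48°C-58°C. After pooling and extraction in PBS with 0.5% NP-40 at 4°C, soluble protein from a 21,000xg, 90 min spin was quantified by TMTpro 16plex LC-MS/MS with channel sums equalised. Thermal stability is expressed against control samples, from duplicates, as a log2 fold change.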
# [2] = compound: CC1=NC(=CC=C1)C2=C(N=C(N2)C(C)(C)C)C3=CC4=NC=CN=C4C=C3
# How it was run: as §1
# Nexturastat A = compound: CCCCN(Cc1ccc(C(=O)NO)cc1)C(=O)Nc1ccccc1 [Nexturastat A]
# How it was run: as §1
# givinostat = compound: CCN(CC)Cc1ccc2cc(COC(=O)Nc3ccc(C(=O)NO)cc3)ccc2c1 [givinostat]
# How it was run: as §1
# barasertib = compound: CCN(CCCOc1ccc2c(Nc3cc(CC(=O)Nc4cccc(F)c4)[nH]n3)ncnc2c1)CCOP(=O)(O)O [barasertib]
# How it was run: as §1
# [3] = compound: CC[C@@H]1C(=O)N(C)c2cnc(Nc3ccc(C(=O)NC4CCN(C)CC4)cc3OC)nc2N1C1CCCC1
# How it was run: as §1
# epoxomicin = compound: CC[C@H](C)[C@@H](C(=O)N[C@@H]([C@@H](C)O)C(=O)N[C@@H](CC(C)C)C(=O)[C@]1(CO1)C)NC(=O)[C@H]([C@@H](C)CC)N(C)C(=O)C [epoxomicin]
# How it was run: as §1
# [4] = compound: CCn1c(C(=O)N(C2CC2)C2CC2)cc2c3c(ncn3C)c(Nc3cc(C)n(C)n3)nc21
# How it was run: as §1
# [5] = compound: CCn1cc(-c2ccnc3[nH]c(-c4cccc(CN(C)C)c4)cc23)c(-c2ccc(NC(=O)N(C)C)cc2)n1
# How it was run: as §1
# rosiglitazone = compound: CN(CCOC1=CC=C(C=C1)C[C@H]2C(=O)NC(=O)S2)C3=CC=CC=N3 (racemic) [rosiglitazone]
# How it was run: as §1
# [6] = compound: CN1CCC(CNc2ccc3ncc(-c4cccc(OC(F)(F)F)c4)n3n2)CC1
# How it was run: as §1
# [7] = compound: CC1=C(C=C(C=C1)NC(=O)C2=CC(=CC=C2)N(C)C)NC(=O)C3=CC=C(C=C3)O
# How it was run: as §1
# [8] = compound: CC1=CC=C(C=C1)SC2=C3C=C(SC3=CN=C2)C(=O)N
# How it was run: as §1
# vemurafenib = compound: CCCS(=O)(=O)Nc1ccc(F)c(C(=O)c2c[nH]c3ncc(-c4ccc(Cl)cc4)cc23)c1F [vemurafenib]
# How it was run: as §1
# [9] = compound: CCCS(=O)(=O)Nc1ccc(F)c(C(=O)c2c[nH]c3ncc(Cl)cc23)c1F
# How it was run: as §1
# [10] = compound: CCCc1cc(C)[nH]c(=O)c1CNC(=O)c1cc(-c2ccnc(N3CCN(C)CC3)c2)cc2c1cnn2C(C)C
# How it was run: as §1
# volasertib = compound: CC[C@@H]1C(=O)N(C)c2cnc(Nc3ccc(C(=O)N[C@H]4CC[C@H](N5CCN(CC6CC6)CC5)CC4)cc3OC)nc2N1C(C)C [volasertib]
# How it was run: as §1
# [11] = compound: CC[C@H](C)N1C=C(C2=C(C=C(C=C21)C3=CN=C(C=C3)N4CCNCC4)C(=O)NCC5=C(C=C(NC5=O)C)C)C
# How it was run: as §1
# [12] = compound: CN(C)CC(=O)Nc1ccc2[nH]c(=O)c3ccccc3c2c1
# How it was run: as §1
# [13] = compound: CN1C2=C(C3=C1C(=O)N(N=C3)CC4=CC(=CC=C4)N)SC(=C2)S(=O)C
# How it was run: as §1
Target,log2 fold change [1],log2 fold change [2],log2 fold change (Nexturastat A),log2 fold change (givinostat),log2 fold change (barasertib),log2 fold change [3],log2 fold change (epoxomicin),log2 fold change [4],log2 fold change [5],log2 fold change (rosiglitazone),log2 fold change [6],log2 fold change [7],log2 fold change [8],log2 fold change (vemurafenib),log2 fold change [9],log2 fold change [10],log2 fold change (volasertib),log2 fold change [11],log2 fold change [12],log2 fold change [13]
ENTPD4 (UniProt Q9Y227),inactive: -0.154,inactive: 0.039,inactive: 0.098,inactive: 0.066,inactive: -0.104,inactive: 0.026,inactive: -0.035,inactive: -0.06,inactive: -0.084,inactive: -0.158,inactive: 0.087,,,,,,,,,
EIF4G3 isoform 3 (UniProt O43432),inactive: -0.024,inactive: -0.015,,inactive: 0.08,inactive: 0.059,inactive: -0.074,,,,,,inactive: 0.01,inactive: 0,inactive: 0.047,inactive: 0.002,inactive: 0.067,inactive: -0.165,inactive: 0.007,inactive: 0.039,inactive: 0.021
EFHD1 (UniProt Q9BUP0),inactive: 0.189,,inactive: 0.209,,,,inactive: 0.217,,inactive: 0.094,,inactive: -0.037,,,inactive: -0.112,,,,inactive: -0.003,inactive: -0.153,inactive: 0
ENTPD7 (UniProt Q9NQZ7),inactive: -0.033,inactive: 0.142,inactive: 0.047,inactive: 0,inactive: -0.009,inactive: -0.204,inactive: 0.032,,,,,,inactive: 0.012,,inactive: -0.1,inactive: -0.068,inactive: -0.233,inactive: 0.08,,inactive: -0.021
EEF1AKMT4-ECE2 (UniProt P0DPD8),inactive: 0.108,inactive: -0.084,,,inactive: 0.133,,,,,inactive: 0.108,,,,,,,,,,inactive: 0.517
EIF4E isoform 2 (UniProt P06730),inactive: 0.044,inactive: 0.02,inactive: -0.078,inactive: 0.012,inactive: -0.07,inactive: -0.012,inactive: 0.053,,inactive: -0.061,,inactive: 0.199,inactive: -0.035,inactive: 0.008,inactive: 0.078,inactive: 0.109,inactive: -0.086,inactive: -0.044,inactive: 0.021,inactive: 0.036,inactive: -0.146
EIF2AK1 (UniProt Q9BQI3),inactive: -0.027,inactive: -0.019,inactive: -0.087,inactive: -0.051,inactive: -0.017,,inactive: 0.13,,inactive: 0.034,,inactive: -0.082,inactive: -0.007,inactive: 0.079,inactive: 0.005,inactive: 0.044,inactive: 0.179,inactive: -0.142,,inactive: -0.121,inactive: 0.006
EIF2S3 (UniProt P41091),inactive: 0.02,inactive: -0.032,inactive: 0.102,inactive: 0.028,inactive: -0.033,inactive: 0.076,inactive: -0.144,,inactive: 0.055,,inactive: 0.049,inactive: 0,inactive: -0.006,inactive: -0.029,inactive: 0.007,inactive: 0.05,inactive: 0.073,inactive: 0.026,inactive: -0.034,inactive: 0.068
EFL1 (UniProt Q7Z2Z2),inactive: -0.025,inactive: 0.012,inactive: -0.11,inactive: 0.004,inactive: 0.05,inactive: -0.024,inactive: 0.008,,inactive: -0.006,,inactive: -0.091,inactive: 0.004,inactive: 0.016,inactive: 0.04,inactive: 0.036,inactive: 0.008,active: -0.245,inactive: 0.014,inactive: 0.025,inactive: -0.037
ELOVL5 isoform 2 (UniProt Q9NYP7),inactive: 0.079,,inactive: -0.05,inactive: -0.008,inactive: 0.035,inactive: -0.227,inactive: -0.034,,inactive: -0.206,,active: -0.691,inactive: 0.02,inactive: 0.002,inactive: 0.065,inactive: 0.03,inactive: -0.241,inactive: -0.164,inactive: 0.026,inactive: 0.021,inactive: -0.044
EIF1B (UniProt O60739),inactive: 0.075,inactive: 0.048,inactive: 0.134,inactive: -0.139,inactive: 0.032,inactive: 0.029,inactive: -0.04,inactive: -0.048,,inactive: -0.157,,inactive: -0.04,,,,inactive: -0.008,,,,
EGR1 (UniProt P18146),inactive: -0.128,,inactive: 0.53,inactive: -0.06,inactive: -0.048,,inactive: 0.489,,inactive: 0.228,,inactive: -0.56,inactive: -0.024,inactive: -0.404,inactive: 0.305,inactive: -0.13,inactive: -0.027,inactive: 0.085,inactive: 0.158,inactive: -0.241,
EIF2AK2 (UniProt P19525),inactive: -0.044,inactive: -0.126,inactive: 0.696,inactive: 0.101,inactive: 0.086,inactive: 0.125,inactive: -0.3,inactive: 0.071,inactive: -0.006,inactive: -0.125,inactive: 0.073,inactive: 0.063,,inactive: -0.198,,inactive: 0.15,,,inactive: 0.114,inactive: 0.242
"EPB41, A0A2R8Y6D0",inactive: -0.077,,,inactive: 0.03,inactive: 0.004,inactive: 0.049,,inactive: -0.038,inactive: 0.011,inactive: -0.001,inactive: -0.012,inactive: 0.119,inactive: 0.041,inactive: 0.027,inactive: -0.017,inactive: -0.014,inactive: 0.008,inactive: 0.041,inactive: 0.083,
EEF1A1 (UniProt P68104),inactive: -0.069,inactive: 0.052,inactive: 0.086,inactive: -0.044,inactive: 0.052,inactive: -0.19,inactive: 0.148,,,,,inactive: -0.068,inactive: 0,inactive: 0.031,inactive: 0.022,inactive: 0.089,inactive: 0.098,inactive: 0.131,inactive: 0.165,inactive: -0.121
EID1 (UniProt Q9Y6B2),inactive: -0.047,,inactive: 0.18,inactive: -0.134,,,active: 0.83,,inactive: -0.104,,inactive: -0.317,,inactive: 0.019,,inactive: -0.107,inactive: 0.135,inactive: 0.053,inactive: 0.172,,
EGLN1 (UniProt Q9GZT9),inactive: -0.14,inactive: 0.048,inactive: -0.096,inactive: -0.191,inactive: 0.066,inactive: 0.117,inactive: 0.078,,inactive: -0.004,,inactive: -0.052,inactive: 0.009,inactive: -0.013,inactive: -0.007,inactive: 0.006,inactive: 0.017,inactive: -0.001,inactive: 0.048,inactive: 0.007,inactive: -0.006
EIF4E2 (UniProt O60573),inactive: -0.089,inactive: 0.089,inactive: 0.097,inactive: 0.031,inactive: 0.083,inactive: -0.202,inactive: 0.018,,,,,inactive: -0.006,inactive: 0.061,inactive: 0.126,inactive: 0.069,inactive: 0,active: -0.381,inactive: 0.124,inactive: 0.063,inactive: -0.034
EP400 (UniProt Q96L91),inactive: -0.205,,,,,,,,,,,,,,,,,,,
EEF1AKMT2 (UniProt Q5JPI9),inactive: 0.057,,,,,,,,,,,,,,,,,,,

# No new results follow: an excerpt of the list.
Target,log2 fold change [1],log2 fold change [2],log2 fold change (Nexturastat A),log2 fold change (givinostat),log2 fold change (barasertib),log2 fold change [3],log2 fold change (epoxomicin),log2 fold change [4],log2 fold change [5],log2 fold change (rosiglitazone),log2 fold change [6],log2 fold change [7],log2 fold change [8],log2 fold change (vemurafenib),log2 fold change [9],log2 fold change [10],log2 fold change (volasertib),log2 fold change [11],log2 fold change [12],log2 fold change [13]
EID1 (UniProt Q9Y6B2),inactive: -0.047,,inactive: 0.18,inactive: -0.134,,,active: 0.83,,inactive: -0.104,,inactive: -0.317,,inactive: 0.019,,inactive: -0.107,inactive: 0.135,inactive: 0.053,inactive: 0.172,,
EGLN1 (UniProt Q9GZT9),inactive: -0.14,inactive: 0.048,inactive: -0.096,inactive: -0.191,inactive: 0.066,inactive: 0.117,inactive: 0.078,,inactive: -0.004,,inactive: -0.052,inactive: 0.009,inactive: -0.013,inactive: -0.007,inactive: 0.006,inactive: 0.017,inactive: -0.001,inactive: 0.048,inactive: 0.007,inactive: -0.006
